Where two headings read alike, the source gives them in different places. These are yes or no findings as the source states them, for the method shown. Binding seen in cells or lysates may run through a third protein. A yes stands for co-enrichment or nearness to the bait. Other partners may have been found. For some assays here: A no says only that the protein was not detected with the bait.
T1: SWI3D-YFPHA (Arabidopsis thaliana) (UniProt Q8VY05)
T1 sequence: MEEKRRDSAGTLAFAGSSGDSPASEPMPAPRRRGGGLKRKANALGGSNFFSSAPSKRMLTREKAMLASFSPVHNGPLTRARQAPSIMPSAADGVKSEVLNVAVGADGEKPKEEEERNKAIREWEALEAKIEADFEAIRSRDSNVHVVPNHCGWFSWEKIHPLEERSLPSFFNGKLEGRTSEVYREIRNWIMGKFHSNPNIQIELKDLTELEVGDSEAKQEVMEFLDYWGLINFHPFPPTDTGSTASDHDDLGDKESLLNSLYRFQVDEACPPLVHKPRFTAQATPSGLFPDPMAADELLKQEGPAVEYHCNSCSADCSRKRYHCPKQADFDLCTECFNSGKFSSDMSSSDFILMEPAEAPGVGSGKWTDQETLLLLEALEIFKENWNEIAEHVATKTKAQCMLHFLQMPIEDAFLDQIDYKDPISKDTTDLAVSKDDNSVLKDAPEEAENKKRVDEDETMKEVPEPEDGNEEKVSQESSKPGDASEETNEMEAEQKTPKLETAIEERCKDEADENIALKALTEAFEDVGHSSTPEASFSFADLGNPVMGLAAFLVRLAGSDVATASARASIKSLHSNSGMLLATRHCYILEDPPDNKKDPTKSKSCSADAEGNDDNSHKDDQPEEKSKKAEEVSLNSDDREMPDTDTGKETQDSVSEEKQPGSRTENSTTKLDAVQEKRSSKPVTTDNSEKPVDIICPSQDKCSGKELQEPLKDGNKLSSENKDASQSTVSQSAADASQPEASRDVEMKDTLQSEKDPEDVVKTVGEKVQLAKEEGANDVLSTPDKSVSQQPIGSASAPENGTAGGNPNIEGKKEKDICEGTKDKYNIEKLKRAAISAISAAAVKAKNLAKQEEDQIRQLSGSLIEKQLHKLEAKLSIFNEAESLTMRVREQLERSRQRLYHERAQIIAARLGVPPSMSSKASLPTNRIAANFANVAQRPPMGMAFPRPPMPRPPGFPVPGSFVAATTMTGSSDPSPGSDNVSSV

Sequences of proteins named here, by UniProt entry; tags and fusion partners are left off. A change or cut given only in a name is not applied to a line headed by its entry.
UniProt Q9FMT4: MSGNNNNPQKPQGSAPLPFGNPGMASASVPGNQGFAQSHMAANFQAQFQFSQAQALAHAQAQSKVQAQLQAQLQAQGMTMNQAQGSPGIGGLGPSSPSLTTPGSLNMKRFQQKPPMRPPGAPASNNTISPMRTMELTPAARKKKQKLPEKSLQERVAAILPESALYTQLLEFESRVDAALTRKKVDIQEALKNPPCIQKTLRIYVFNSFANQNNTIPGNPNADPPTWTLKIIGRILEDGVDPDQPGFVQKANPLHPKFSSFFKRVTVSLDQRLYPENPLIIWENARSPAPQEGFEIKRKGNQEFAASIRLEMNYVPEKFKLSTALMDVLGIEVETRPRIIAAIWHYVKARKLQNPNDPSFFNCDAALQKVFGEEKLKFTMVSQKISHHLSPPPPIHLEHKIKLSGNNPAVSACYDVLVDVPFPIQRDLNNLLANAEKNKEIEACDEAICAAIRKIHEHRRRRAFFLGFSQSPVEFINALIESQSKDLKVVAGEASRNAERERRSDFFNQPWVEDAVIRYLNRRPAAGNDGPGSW
UniProt F4JBZ1: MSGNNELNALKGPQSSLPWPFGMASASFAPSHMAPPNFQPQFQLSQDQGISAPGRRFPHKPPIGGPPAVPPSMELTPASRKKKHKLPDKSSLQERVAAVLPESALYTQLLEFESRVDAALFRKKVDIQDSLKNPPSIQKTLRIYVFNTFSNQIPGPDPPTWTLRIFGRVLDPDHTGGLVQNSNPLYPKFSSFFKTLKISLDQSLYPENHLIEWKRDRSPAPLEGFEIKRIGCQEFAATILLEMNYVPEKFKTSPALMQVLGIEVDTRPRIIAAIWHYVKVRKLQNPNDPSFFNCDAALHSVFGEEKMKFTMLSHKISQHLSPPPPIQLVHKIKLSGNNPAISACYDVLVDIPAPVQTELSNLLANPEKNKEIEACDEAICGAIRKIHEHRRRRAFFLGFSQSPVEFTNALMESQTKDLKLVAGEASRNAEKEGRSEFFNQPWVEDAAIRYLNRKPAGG


Legend:
Experiment in all cases: affinity purification with mass spectrometry; YFPHA-tagged bait captured on GFP-Trap magnetic beads from extracts of 20 g transgenic plants; IP buffer 50 mM Tris-HCl pH 7.6, 150 mM NaCl, 5 mM MgCl2, 10% glycerol, 0.25% TritonX-100, 1 mM DTT, with Viscolase; LC-MS/MS, label-free quantification
[1] = target: T1, SWI3D-YFPHA (Arabidopsis thaliana)
[2] = target: SWP73B-YFPHA (Arabidopsis thaliana) (UniProt Q9FMT4)
[3] = target: SWP73A-YFPHA (Arabidopsis thaliana) (UniProt F4JBZ1)
[4] = target: T1, SWI3D-YFPHA (Arabidopsis thaliana); remark: listed apart in the source

Molecule | binding [1] | binding [2] | binding [3] | binding [4]
SYS3 | binds | – | – | –
BCL7B | binds | – | – | –
BCL7A | binds | – | – | –
SYS1 | binds | – | – | –
SWP73A (endogenous) | no binding | – | – | –
SYS2 | binds | – | – | –
SWI3C (protein, UniProt Q9XI07 1-807) MPASEDRRGKWKRKKRGGLSAARKPKQEEEDMEEEDEENNNNNNEEMDDVENADELQQNGGATPDPGLGIGEVVEDSGSRISDFPAVVKRVVIRPHASVMAVVAAERAGLIGETRGQGSLPALENISFGQLQALSTVPADSLDLERSDGSSSAYVISPPPIMDGEGVVKRFGDLVHVLPMHSDWFAPNTVDRLERQVVPQFFSGKSPNHTPESYMEFRNAIVSKYVENPEKTLTISDCQGLVDGVDIEDFARVFRFLDHWGIINYCATAQSHPGPLRDVSDVREDTNGEVNVPSAALTSIDSLIKFDKPNCRHKGGEVYSSLPSLDGDSPDLDIRIREHLCDSHCNHCSRPLPTVYFQSQKKGDILLCCDCFHHGRFVVGHSCLDFVRVDPMKFYGDQDGDNWTDQETLLLLEAVELYNENWVQIADHVGSKSKAQCILHFLRLPVEDGLLDNVEVSGVTNTENPTNGYDHKGTDSNGDLPGYSEQGSDTEIKLPFVKSPNPVMALVAFLASAVGPRVAASCAHESLSVLSEDDRMKSEGMQGKEASLLDGENQQQDGAHKTSSQNGAEAQTPLPQDKVMAAFRAGLSAAATKAKLFADHEEREIQRLSANIVNHQLKRMELKLKQFAEIETLLMKECEQVEKTRQRFSAERARMLSARFGSPGGISPQTNNLQGMSLSTGGNNINSLMHQQHQQQQASATSQPSIIPGFSNNPQVQAQMHFMARQQQQQQQQQQQQQQAFSFGPRLPLNAIQTNAGSTASPNVMFGNNQLNNPAAAGAASINQPSFSHPMVRSSTGSGSGSGLGLN | – | binds | binds | –
MINU2 (protein, UniProt F4K128 1-1064) MVKQLQEQEENDPVEKTKSLISALNYLSRDLLLPSHLYASVSSIYHASVSDLSPSPPLRGNSYTPNRGDLMSEFEDALLQQRLNYESGSRLAELKETRYKNRIHNRLSQLEGLPSNRGEDLQEKCLLELYGLKLQELQCRVRGEVSAEYWLRLNCADPERQLYDWGMMRLPRRMYGVGDSFVMEADDQFRNKRDAERLLRLEEEEKNLIETTQRKFFAEVLNAVREFQLQIQASHRRCKQRNDGVQAWHGKQRQRATRAEKLRIMALKSDDQEEYMKLAKESKNEKLTLFLEETNKIFVSLGAAVQRQKDAKLSENTKLLKGSESDLSDVDAPEDVLPAQDIEIIDSDNNDDSNDLLEGERQFNLAIHSIQEKVTKQPSLLQGGELRSYQLEGLQWMVSLYNNDYNGILADEMGLGKTIQTIALIAYLLESKDLHGPHLILAPKAVLPNWENEFALWAPSISAFLYDGSKEKRTEIRARIAGGKFNVLITHYDLIMRDKAFLKKIDWNYMIVDEGHRLKNHECALAKTLGTGYRIKRRLLLTGTPIQNSLQELWSLLNFLLPHIFNSIHNFEEWFNTPFAECGSASLTDEEELLIINRLHHVIRPFLLRRKKSEVEKFLPGKTQVILKCDMSAWQKLYYKQVTDVGRVGLHSGNGKSKSLQNLTMQLRKCCNHPYLFVGADYNMCKKPEIVRASGKFELLDRLLPKLKKAGHRILLFSQMTRLIDLLEIYLSLNDYMYLRLDGSTKTDQRGILLKQFNEPDSPYFMFLLSTRAGGLGLNLQTADTIIIFDSDWNPQMDQQAEDRAHRIGQKKEVRVFVLVSIGSIEEVILERAKQKMGIDAKVIQAGLFNTTSTAQDRREMLEEIMSKGTSSLGEDVPSEREINRLAARTEEEFWMFEQMDEERRKKENYKTRLMEEKEVPEWAYTSETQEDKTNAKNHFGSLTGKRKRKEAVYSDSLSDLQWMKAMESEDEDASKVSQKRKRTDTKTRMSNGSKAEAVLSESDEEKEEEEEERKEESGKESEEENEKPLHSWKTNKKKRSRYPVMTSSPNSRGKGSSKGSKRN | – | binds | – | –
SWI3D (endogenous) (protein, UniProt Q8VY05 1-985) MEEKRRDSAGTLAFAGSSGDSPASEPMPAPRRRGGGLKRKANALGGSNFFSSAPSKRMLTREKAMLASFSPVHNGPLTRARQAPSIMPSAADGVKSEVLNVAVGADGEKPKEEEERNKAIREWEALEAKIEADFEAIRSRDSNVHVVPNHCGWFSWEKIHPLEERSLPSFFNGKLEGRTSEVYREIRNWIMGKFHSNPNIQIELKDLTELEVGDSEAKQEVMEFLDYWGLINFHPFPPTDTGSTASDHDDLGDKESLLNSLYRFQVDEACPPLVHKPRFTAQATPSGLFPDPMAADELLKQEGPAVEYHCNSCSADCSRKRYHCPKQADFDLCTECFNSGKFSSDMSSSDFILMEPAEAPGVGSGKWTDQETLLLLEALEIFKENWNEIAEHVATKTKAQCMLHFLQMPIEDAFLDQIDYKDPISKDTTDLAVSKDDNSVLKDAPEEAENKKRVDEDETMKEVPEPEDGNEEKVSQESSKPGDASEETNEMEAEQKTPKLETAIEERCKDEADENIALKALTEAFEDVGHSSTPEASFSFADLGNPVMGLAAFLVRLAGSDVATASARASIKSLHSNSGMLLATRHCYILEDPPDNKKDPTKSKSCSADAEGNDDNSHKDDQPEEKSKKAEEVSLNSDDREMPDTDTGKETQDSVSEEKQPGSRTENSTTKLDAVQEKRSSKPVTTDNSEKPVDIICPSQDKCSGKELQEPLKDGNKLSSENKDASQSTVSQSAADASQPEASRDVEMKDTLQSEKDPEDVVKTVGEKVQLAKEEGANDVLSTPDKSVSQQPIGSASAPENGTAGGNPNIEGKKEKDICEGTKDKYNIEKLKRAAISAISAAAVKAKNLAKQEEDQIRQLSGSLIEKQLHKLEAKLSIFNEAESLTMRVREQLERSRQRLYHERAQIIAARLGVPPSMSSKASLPTNRIAANFANVAQRPPMGMAFPRPPMPRPPGFPVPGSFVAATTMTGSSDPSPGSDNVSSV | – | binds | – | –
ARP4 (protein, UniProt Q84M92 1-441) MYGGDEVSAIVVDLGSHTCKAGYAGEDAPKAVFPSVIGAVDGVEAMDVDVDSTKTNSNSEDSKTESEKEKSKRKLYVGSQAMSYRRDHMEVLSPIKDGIVSDWDLVDNIWEHAFKSCLMIDPTEHPMLLAEPPLNTQQQREKAAELMFEKYKVPALFMAKNPVLTSFATGRATSLVVDCGGGSTTISPVHDGYVLQKAVVSSPLGGEFLTDCLLKSLESKGIKIRPRYSFKRKEVRAGEFQVEDVDIPDTTESYKLFCQRMIVGDIKDSICRVPDTPYDDKSYSNIPTTSYELPDGQTLEIGADRFKVPDVMFNPSIVQTIPGMEKYAEMIPSVRGLPHMVMESINKCDVDIRRELYSSILLAGGTSSMQQLKERLEKDLIEESPHSARVKVLASGNTTERRFSVWIGGSILASLGSFQQMWFSKSEYEEHGASYIQRKCP | – | binds | binds | binds
ARP7 (protein, UniProt Q8L4Y5 1-363) MEALVVDAGSKFLKAGAAIPDQSPAMIIPSQMKRMVDDGSSSADNPTTVFEDVTLDPIERGLIRDWDAMEDLLRYVVYTGLGWEEGNEGNILFTDPLCTPKAIREQLVQLMFETFNVSGFYASEQAVLSLYAVGRISGCTVDIGHGKIDIAPVLEGAVQHIASKRFELGGTELTKLFAQELGKTNPSMNLSMSDVEKLKEQYANCAEDEIAYKKTQNCEIEQHTLPDGQVISIGRERYSVGEALFQPSILGLEEHGIVEQLVRIISTVSSENHRQLLENTVLCGGTTSMTGFESRFQKEANLCSSAIRPTLVKPPEYMPENLGMYSAWVGGAILAKVVFPQNQHVTKADYDETGPSVVHRKCF | – | binds | binds | binds
LFR (protein, UniProt Q9LS90 1-460) MQKRELGKSGGNSGGSSGPPAKRGRPFGSTSANSAAAAAAAAAADAMSPSALLGPSLLVHNSFVEQNNRRIVLALQSGLKSEVTWALNTLTLLSFKEKEDIRRDVMPLAKIAGLLDALLLIIDDWRDIALPKDLTRGTRVRTLGTNASVTGFGNEYDALASIQPPGSGIGSSAAEALGKKSTGKHQSSQWWMEEDGLFNLDDEGRSEKQMCAIAASNVIRNFSFMPDNEVVMAQHRHCLETVFQCIHDHMTEDEELVTNSLETIVNLAHLMDLRIFSSLKQSYININEKKAVQAVVGILNSSVKAWNCAAAELLGRLIINPDNEPFISPLIPQIHKRLIDLLSIQAVDAQAAAVGALYNLVEVNMDCRLKLASERWAVDRLLKVIKTPHPVPEVCRKAAMILENLVSEPQNRGLLLAYENAFAELLFQEGKYSDSFARILYELTARSNSRVASARGIWGM | – | – | – | binds

From paper PMC12177292
